The list does not hold the whole screen: it is rich in T/C values a quarter to a half above the control, in often repeated tests (any T/C) and in doses without a T/C. Further doses and runs are listed elsewhere. T/C gives the treated animals as a percentage of the vehicle group. Some doses have a count of surviving animals in place of a T/C: the source files T/C as zero there, which appears to mark a toxic dose or a test without result, not a measured value. Some doses without a T/C left all or most animals alive at the check, yet need not have been tolerated: the source hardly ever lists a survival T/C far under the control, and the zero likely stands for such cases as well. Survivors were counted at the toxicity check, usually on the fifth day, unless a day is given; later deaths do not show. Schedules are NCI's codes, taken here to give the interval after Q, in days (D) or hours (H), and the number of doses after X. For survival time, this PubChem deposit counts one and a half times the control or more as active, and values a quarter to a half above the control carry no call in these data; other NCI protocols may use other cut-offs. Some schedules carry Z or #; the key to these is not given.
Test system: L1210 leukemia ip in BDF1 mice, survival T/C
Test: NCI In Vivo Anticancer Drug Screen. Data for tumor model L1210 Leukemia (intraperitoneal) in B6D2F1 (BDF1) mice
Details: T/C endpoint: mean survival time, higher T/C = longer survival; for T/C: schedule: Q01DX Z (ip)
[1] = dose: 400.0 mg/kg/injection, schedule: Q01DX001 (ip), vehicle: saline
[2] = dose: 400.0 mg/kg/injection, schedule: Q04DX002 (ip), vehicle: Klucel (hydroxypropylcellulose) (HPC)
[3] = dose: 100.0 mg/kg/injection, schedule: Q04DX002 (ip), vehicle: Klucel (hydroxypropylcellulose) (HPC)
[4] = dose: 200.0 mg/kg/injection, schedule: Q01DX009 (ip), vehicle: Klucel (hydroxypropylcellulose) (HPC)
[5] = dose: 400.0 mg/kg/injection, schedule: Q01DX009 (ip), vehicle: Klucel (hydroxypropylcellulose) (HPC)
[6] = dose: 400.0 mg/kg/injection, schedule: Q04DX003 (ip), vehicle: Klucel (hydroxypropylcellulose) (HPC)
[7] = dose: 200.0 mg/kg/injection, schedule: Q04DX002 (ip), vehicle: Klucel (hydroxypropylcellulose) (HPC)
[8] = dose: 400.0 mg/kg/injection, schedule: Q01DX009 (ip), vehicle: saline with Tween-80

**Q.** How did the survivor count [1] turn out when `CC(=O)Oc1ccc(Cl)cc1/C=C\C=O` was run?
**A.** 3 of 6

**Q.** For `Cc1ccc(NC(=O)OCCCl)cc1`, which survivor count [1] is on record?
**A.** 0 of 4

**Q.** For `CCCCCCCCN=[N+](C)[O-]`, which survivor count [2] is on record?
**A.** 1 of 3

**Q.** For `CC(C)=CCC(N)CC=C(C)C`, which survivor count (dose: 100.0 mg/kg/injection, schedule: Q01DX009 (ip), vehicle: Klucel (hydroxypropylcellulose) (HPC)) is on record?
**A.** 0 of 6

**Q.** What about the survivor count [3] of the same compound?
**A.** 1 of 3

**Q.** What about the survivor count [4] of the same compound?
**A.** 0 of 6

**Q.** And the survivor count [5]?
**A.** 0 of 6

**Q.** Which survivor count (dose: 400.0 mg/kg/injection, schedule: Q01DX001 (ip), vehicle: carboxymethylcellulose (CMC)) does the source give for `CCCCCCCNC` here?
**A.** 2 of 4

**Q.** Which T/C (dose: 200.0 mg/kg/injection, vehicle: carboxymethylcellulose (CMC)) does the source give for `CCOC(=O)CNC(=O)N(CCCl)N=O` here?
**A.** 125 % of control

**Q.** And the T/C (dose: 300.0 mg/kg/injection, vehicle: carboxymethylcellulose (CMC))?
**A.** 125 % of control

**Q.** How did the survivor count [6] turn out when `CN1C(=O)CCS(=O)(=O)C1c1ccc(Cl)c(Cl)c1` (centres undefined) was run?
**A.** 2 of 4

**Q.** Which survivor count [3] does the source give for `CC(SS(=O)(=O)O)C(N)=NCc1ccccc1` (centres undefined) here?
**A.** 3 of 3

**Q.** And the survivor count [7]?
**A.** 2 of 3

**Q.** And the survivor count [2]?
**A.** 1 of 3

**Q.** What does the source list for `CC(C)(N)CC(=O)Oc1ccccc1`?
**A.** survivor count (dose: 75.0 mg/kg/injection, schedule: Q04DX003 (ip), vehicle: saline): 6 of 6; survivor count (dose: 300.0 mg/kg/injection, schedule: Q01DX001 (ip), vehicle: saline): 0 of 6

**Q.** How did the survivor count [6] turn out when `O=C(NCCCN1CC1)C(=O)Nc1ccccn1` was run?
**A.** 0 of 6

**Q.** `CCC1(c2ccccc2)C(=O)N(C)C(=O)N(CBr)C1=O` (centres undefined) was tested. Which survivor count [8] did it give?
**A.** 0 of 3

**Q.** How did the survivor count (dose: 200.0 mg/kg/injection, schedule: Q01DX009 (ip), vehicle: saline with Tween-80) turn out when `CCCCOc1ccc(C(=O)NN)cc1` was run?
**A.** 4 of 6

**Q.** What about the survivor count [8] of the same compound?
**A.** 0 of 6

**Q.** With `CCN(CC)CCN(Cc1ccccc1)C(=O)C(O)(c1ccccc1)c1ccccc1` as the compound, how does the survivor count (dose: 400.0 mg/kg/injection, schedule: Q01DX001 (ip), vehicle: saline with Tween-80) read?
**A.** 1 of 3

**Q.** `N#CCc1ccccc1-c1ccccc1CC#N` was tested. Which survivor count (dose: 100.0 mg/kg/injection, schedule: Q01DX001 (ip), vehicle: other) did it give?
**A.** 1 of 4

**Q.** And the survivor count (dose: 200.0 mg/kg/injection, schedule: Q01DX001 (ip), vehicle: other)?
**A.** 0 of 4

**Q.** And the survivor count (dose: 400.0 mg/kg/injection, schedule: Q01DX001 (ip), vehicle: other)?
**A.** 0 of 4

**Q.** For `CC([NH-])C(=O)O.CC([NH-])C(=O)O.CC([NH-])C(=O)O.[Co+3]` (centres undefined), which survivor count (dose: 200.0 mg/kg/injection, schedule: Q01DX009 (ip), vehicle: water) is on record?
**A.** 4 of 6

**Q.** What about the survivor count (dose: 200.0 mg/kg/injection, schedule: Q04DX002 (ip), vehicle: saline with Tween-80) of the same compound?
**A.** 0 of 3

**Q.** How did the survivor count [3] turn out when `CCCCCCCNC(CC(C)C)C(=O)OCC` (centres undefined) was run?
**A.** 1 of 3

**Q.** And the survivor count [7]?
**A.** 1 of 3

**Q.** And the survivor count [2]?
**A.** 0 of 3

**Q.** `CC(=O)OCc1ccc(Cl)cc1` was tested. Which survivor count (dose: 400.0 mg/kg/injection, schedule: Q01DX009 (ip), vehicle: saline) did it give?
**A.** 3 of 6

**Q.** Which survivor count [4] does the source give for `O=C1C(c2ccccc2)=S=C2Sc3ccccc3N12` here?
**A.** 6 of 6

**Q.** And the survivor count [5]?
**A.** 4 of 6

**Q.** How did the survivor count [6] turn out when `O=C(OC(c1ccccc1)c1ccccc1)C(CSC(c1ccccc1)(c1ccccc1)c1ccccc1)NC(c1ccccc1)(c1ccccc1)c1ccccc1` (centres undefined) was run?
**A.** 6 of 6

**Q.** With `Clc1ccc(C2=NC3=CC(Cl)C=CC3=CC2C2CO2)cc1` (centres undefined) as the compound, how does the survivor count [5] read?
**A.** 6 of 6
